Laboratory results taken from PMC3024409.
No constants are given. Whether binding was seen depends on the method and setting. Where a sequence is shown, tags or fusion partners need not be part of it.

Assays:
Assay in all cases: condition: 5 µM untagged protein, 3 µM MBP-tagged protein; pull-down; 3 µM MBP-tagged bait and 5 µM untagged prey in 50 mM HEPES pH 7.5, 150 mM KCl; 10 min at room temperature, 1 h at 4°C with amylose resin; washed, eluted with 20 mM maltose; SDS-PAGE, Coomassie; both purified
[1] = biological target: (MBP-)Dim1 (S. cerevisiae), P41819; settings: remark: other sources report otherwise
[2] = biological target: T1, (MBP-)Nob1 (S. cerevisiae), Q08444; settings: remark: other sources report otherwise
T1 chain: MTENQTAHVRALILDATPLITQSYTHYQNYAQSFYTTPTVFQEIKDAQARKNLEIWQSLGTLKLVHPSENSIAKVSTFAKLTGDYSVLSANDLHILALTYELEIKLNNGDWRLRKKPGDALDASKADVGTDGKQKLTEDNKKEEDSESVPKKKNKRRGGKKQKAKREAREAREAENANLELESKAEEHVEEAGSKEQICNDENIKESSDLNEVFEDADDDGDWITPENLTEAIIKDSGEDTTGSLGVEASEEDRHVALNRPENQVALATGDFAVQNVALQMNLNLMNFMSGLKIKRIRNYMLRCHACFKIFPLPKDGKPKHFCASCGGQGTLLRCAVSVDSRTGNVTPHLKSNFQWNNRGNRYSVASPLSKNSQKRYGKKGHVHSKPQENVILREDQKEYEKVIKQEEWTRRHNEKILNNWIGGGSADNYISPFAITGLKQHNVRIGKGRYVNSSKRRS

[3] = biological target: T2, (MBP-)Rps3 (S. cerevisiae), P05750; settings: remark: other sources report otherwise
T2 chain: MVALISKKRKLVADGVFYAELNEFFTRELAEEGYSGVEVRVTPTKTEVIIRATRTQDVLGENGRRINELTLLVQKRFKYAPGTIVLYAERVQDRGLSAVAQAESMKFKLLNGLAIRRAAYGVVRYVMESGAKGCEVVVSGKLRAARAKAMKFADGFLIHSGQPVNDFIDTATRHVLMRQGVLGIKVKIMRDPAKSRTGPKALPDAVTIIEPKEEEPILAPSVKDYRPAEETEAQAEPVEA

[4] = biological target: T3, (MBP-)Rps15 (S. cerevisiae) (UniProt Q01855)
T3 sequence: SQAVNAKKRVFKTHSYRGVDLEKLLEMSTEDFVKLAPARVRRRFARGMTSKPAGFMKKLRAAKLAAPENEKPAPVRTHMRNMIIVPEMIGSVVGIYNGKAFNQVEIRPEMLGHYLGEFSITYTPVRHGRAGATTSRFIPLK

[5] = biological target: T4, (MBP-)Rps5 (S. cerevisiae) (UniProt P26783)
T4 sequence: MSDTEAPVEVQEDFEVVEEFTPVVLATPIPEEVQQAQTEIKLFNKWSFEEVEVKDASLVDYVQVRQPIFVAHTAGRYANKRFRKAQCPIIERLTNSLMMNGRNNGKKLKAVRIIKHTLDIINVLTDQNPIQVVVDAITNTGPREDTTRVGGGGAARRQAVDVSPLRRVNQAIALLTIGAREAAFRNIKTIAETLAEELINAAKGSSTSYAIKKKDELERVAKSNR

[6] = biological target: T5, (MBP-)Dim2/Pno1 (S. cerevisiae), Q99216; settings: remark: other sources report otherwise
T5 chain: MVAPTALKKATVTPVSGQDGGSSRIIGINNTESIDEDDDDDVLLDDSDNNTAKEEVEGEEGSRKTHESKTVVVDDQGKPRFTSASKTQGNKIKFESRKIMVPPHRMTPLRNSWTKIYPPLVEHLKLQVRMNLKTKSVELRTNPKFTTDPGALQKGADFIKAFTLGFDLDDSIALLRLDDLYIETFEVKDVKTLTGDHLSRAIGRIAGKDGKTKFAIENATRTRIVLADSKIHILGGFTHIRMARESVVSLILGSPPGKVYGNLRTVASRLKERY

[7] = biological target: T6, (MBP-)Tsr1 (S. cerevisiae), Q07381; settings: remark: other sources report otherwise
T6 chain: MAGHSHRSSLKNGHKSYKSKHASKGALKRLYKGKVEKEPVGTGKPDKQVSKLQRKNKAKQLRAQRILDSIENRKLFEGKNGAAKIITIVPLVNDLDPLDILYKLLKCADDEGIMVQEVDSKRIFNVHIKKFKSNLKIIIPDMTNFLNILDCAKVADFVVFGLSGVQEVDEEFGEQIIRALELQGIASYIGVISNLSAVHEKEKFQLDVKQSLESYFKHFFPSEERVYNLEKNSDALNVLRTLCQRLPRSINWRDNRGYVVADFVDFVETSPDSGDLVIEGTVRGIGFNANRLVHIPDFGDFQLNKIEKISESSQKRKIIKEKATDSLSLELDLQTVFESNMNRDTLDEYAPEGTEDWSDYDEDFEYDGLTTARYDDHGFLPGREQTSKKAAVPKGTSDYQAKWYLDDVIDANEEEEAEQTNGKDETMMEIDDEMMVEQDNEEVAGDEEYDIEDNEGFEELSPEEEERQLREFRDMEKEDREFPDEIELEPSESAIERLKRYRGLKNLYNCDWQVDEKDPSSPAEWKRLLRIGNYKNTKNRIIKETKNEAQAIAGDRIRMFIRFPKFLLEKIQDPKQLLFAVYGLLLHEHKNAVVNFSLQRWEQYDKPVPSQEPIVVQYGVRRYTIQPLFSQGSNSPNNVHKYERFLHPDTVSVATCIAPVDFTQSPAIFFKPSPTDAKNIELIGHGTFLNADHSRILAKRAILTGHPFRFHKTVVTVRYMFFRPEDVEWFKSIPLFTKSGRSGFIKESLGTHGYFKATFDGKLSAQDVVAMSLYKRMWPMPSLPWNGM

B1: Tsr1 (untagged), Q07381 1-788 (protein)
chain: T6 chain
**Q.** How did the binding [1] turn out when B1 was run?
**A.** The binding was “no binding”.

**Q.** And the binding [2]?
**A.** Its binding is “no binding”.

**Q.** And the binding [3]?
**A.** Its binding is “no binding”.

B2: Tsr1 (untagged) (protein, UniProt Q07381 1-788)
chain: T6 chain
**Q.** For B2, which binding [4] is on record?
**A.** The binding was “no binding”.

**Q.** And the binding [5]?
**A.** The binding was “no binding”.

B3: Dim1 (untagged), P41819 1-318 (enzyme)
chain: MGKAAKKKYSGATSSKQVSAEKHLSSVFKFNTDLGQHILKNPLVAQGIVDKAQIRPSDVVLEVGPGTGNLTVRILEQAKNVVAVEMDPRMAAELTKRVRGTPVEKKLEIMLGDFMKTELPYFDICISNTPYQISSPLVFKLINQPRPPRVSILMFQREFALRLLARPGDSLYCRLSANVQMWANVTHIMKVGKNNFRPPPQVESSVVRLEIKNPRPQVDYNEWDGLLRIVFVRKNRTISAGFKSTTVMDILEKNYKTFLAMNNEMVDDTKGSMHDVVKEKIDTVLKETDLGDKRAGKCDQNDFLRLLYAFHQVGIHFS
**Q.** Which results are given for B3?
**A.** binding [6]: no binding; binding [7]: no binding
